Laboratory results: PubChem BioAssay AID1224828 (NIAID, 2016)

Aim: 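Regulators linking TLR4 signalling to p65 nuclear translocation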 (primary screen)
Cell system: mouse RAW264.7 G9 macrophage reporter cells (GFP-p65, Tnf promoter-mCherry)
Knock-down reagent: siRNA pool against mouse genes, 100 nM
Duration: 2 days siRNA transfection, then 40 min LPS before fixation
Conditions: LPS (Salmonella minnesota R595) at 10 ng/ml
Measurement: 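Microscopy ratio of nuclear to perinuclear-ring GFP-p65 signal, scaled to the plate median; gene score is the average of two replicate robust z-scores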
Direction: p65 translocation robust z-score: higher = more nuclear NF-kappaB p65 after LPS than the plate median; nuclear/cytoplasmic p65 ratio: higher = more nuclear NF-kappaB p65
Active means: 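Called active when z exceeds 3.3 or falls under -1.56 (median of Tlr4 controls), giving activity score of at least 50; no calls for control wells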
Meaning of the calls: active = hit (p65 shift raised or lowered); inactive = no clear change
In all, the deposit lists about 17,000 reagents; this is an unselected part. 762 of all reagents (4.5%) count as active. 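Active calls include both raised and lowered p65 entry, mostly lowered; wells with fewer than 50 cells lack a z-score.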 Raw values vary from plate to plate and are shown uncorrected. Reagents against one gene are numbered here.

Gene	reagent	p65 translocation robust z-score	nuclear/cytoplasmic p65 ratio, rep 1	nuclear/cytoplasmic p65 ratio, rep 2	low cell count flag	Call
Glrx	1	-0.26	1.48	1.26	enough cells to score	inactive
Heyl	1	0.59	1.46	1.5	enough cells to score	inactive
Scgb3a2	1	3.67	2.35	1.81	enough cells to score	active
Or10j7	1	-0.35	1.59	1.34	enough cells to score	inactive
LOC243676 (retired record)	1	-0.39	1.52	1.21	enough cells to score	inactive
Tgm5	1		1.32	1.18	fewer than 50 cells per well; well left out of scoring	inactive
Rps6kc1	1	-2.11	1.23	1.53	enough cells to score	active
Alyref2	1		1.27	1.06	fewer than 50 cells per well; well left out of scoring	inactive
Ppp6c	1	-0.99	1.47	1.28	enough cells to score	inactive
Slc26a7	1	-0.11	1.3	1.24	enough cells to score	inactive
Cbl	1	0.81	1.61	1.45	enough cells to score	inactive
Mpp4	1	0.07	1.91	1.5	enough cells to score	inactive
Copa	1	1.34	1.86	1.91	enough cells to score	inactive
Akt3	1		2.45	0.897	fewer than 50 cells per well; well left out of scoring	inactive
Gm6740	1	-0.78	1.59	1.42	enough cells to score	inactive
Paics	1	-0.66	1.37	1.31	enough cells to score	inactive
Muc4	1	3.8	2.05	2.46	enough cells to score	active
Muc4	2	0.83	1.14	1.4	enough cells to score	inactive
Polr1has	1	0.3	1.42	1.46	enough cells to score	inactive
Selenbp1	1	0.74	1.6	1.71	enough cells to score	inactive
Or4c122	1	0.51	1.8	1.6	enough cells to score	inactive
Crispld1	1	-0.3	1.46	1.83	enough cells to score	inactive
Plekho1	1	0.66	1.48	1.56	enough cells to score	inactive
Ist1	1		1.08	1.27	fewer than 50 cells per well; well left out of scoring	inactive
Furin	1	0.71	1.49	1.5	enough cells to score	inactive
Abcg1	1	0.76	1.73	1.79	enough cells to score	inactive
Tbc1d9	1	0.64	1.8	1.62	enough cells to score	inactive
Dok3	1	1.07	1.78	1.83	enough cells to score	inactive
P2ry13	1	-0.04	1.5	1.49	enough cells to score	inactive
Klra17	1	-0.27	1.5	1.29	enough cells to score	inactive
Cwf19l2	1	1.93	1.83	2.13	enough cells to score	inactive
Miso1	1	0.26	1.55	1.35	enough cells to score	inactive
Hmgcl	1	-0.78	1.29	1.32	enough cells to score	inactive
Or52z13	1	-2.22	1.12	1.01	enough cells to score	active
Jup	1	1.95	1.66	1.7	enough cells to score	inactive
Disp2	1	3.52	1.91	1.83	enough cells to score	active
Zdhhc19	1	-0.46	1.42	1.2	enough cells to score	inactive
Or13c7d	1	-0.02	1.5	1.6	enough cells to score	inactive
Rhox4b	1	-0.06	1.58	1.25	enough cells to score	inactive
Cetn3	1	1.36	1.72	1.49	enough cells to score	inactive
Nanos2	1	-1.81	1.53	1.28	enough cells to score	active
Dlst	1	1.25	1.7	1.5	enough cells to score	inactive
Nab1	1	-3.3	1.27	1.08	enough cells to score	active
Sfrp5	1	-0.36	1.48	1.52	enough cells to score	inactive
Pgc	1	0.21	1.32	1.27	enough cells to score	inactive
Mxra8	1		1.64	1.54	fewer than 50 cells per well; well left out of scoring	inactive
Frem1	1	-0.41	1.42	1.58	enough cells to score	inactive
Or6x1	1	0.27	1.48	1.39	enough cells to score	inactive
Tmem114	1	2.58	1.6	1.61	enough cells to score	inactive
Ptpn22	1	0.89	1.63	1.52	enough cells to score	inactive
Ankrd69	1	-0.8	1.22	1.21	enough cells to score	inactive
Guf1	1	-1.13	1.19	1.42	enough cells to score	inactive
Atcay	1	0.79	1.6	1.74	enough cells to score	inactive
Dusp26	1	0.45	1.67	1.7	enough cells to score	inactive
Elmo1	1	-0.36	1.44	1.3	enough cells to score	inactive
Sptssb	1	-0.8	1.41	1.36	enough cells to score	inactive
Cc2d2a	1	-0.08	1.3	1.5	enough cells to score	inactive
Or5w15	1	-1.94	1.37	1.29	enough cells to score	active
Lce1b	1	-0.18	1.4	1.21	enough cells to score	inactive
Slc28a2	1	0.77	1.4	1.35	enough cells to score	inactive
Itsn1	1	0.11	1.5	1.39	enough cells to score	inactive
Brip1	1	-0.13	1.67	1.52	enough cells to score	inactive
Rbks	1	-1.26	1.55	1.22	enough cells to score	inactive
Trpm7	1	0.09	1.67	1.42	enough cells to score	inactive
Pih1d1	1	-1.19	1.38	1.28	enough cells to score	inactive
Itgax	1	-0.1	1.41	1.41	enough cells to score	inactive
Senp1	1	1.15	1.68	1.76	enough cells to score	inactive
Dazap1	1	-1.66	1.22	1.42	enough cells to score	active
Tank	1	0.3	1.56	1.46	enough cells to score	inactive
Txndc9	1		1.31	1.2	fewer than 50 cells per well; well left out of scoring	inactive
H2-T3	1	2.09	1.93	1.88	enough cells to score	inactive
Hacl1	1	0.85	1.66	1.56	enough cells to score	inactive
Pla2g1b	1	-1.2	1.3	1.28	enough cells to score	inactive
Ubl3	1	-0.77	1.39	1.41	enough cells to score	inactive
Or6z5	1		1.41	1.37	fewer than 50 cells per well; well left out of scoring	inactive

Limited to “nuclear/cytoplasmic p65 ratio, rep 2” (7 entries from above):
Guf1: 1.42
Atcay: 1.74
Dusp26: 1.7
Elmo1: 1.3
Sptssb: 1.36
Cc2d2a: 1.5
Or5w15: 1.29
